Here are results for 42 sequences from article PMC7819943, “Rice protein-binding microarrays: a tool to detect cis-acting elements near promoter regions in rice”.

By UniProt entry, the sequences of proteins in these tests, tags left out.
UniProt Q0JBA9, entry or part of it: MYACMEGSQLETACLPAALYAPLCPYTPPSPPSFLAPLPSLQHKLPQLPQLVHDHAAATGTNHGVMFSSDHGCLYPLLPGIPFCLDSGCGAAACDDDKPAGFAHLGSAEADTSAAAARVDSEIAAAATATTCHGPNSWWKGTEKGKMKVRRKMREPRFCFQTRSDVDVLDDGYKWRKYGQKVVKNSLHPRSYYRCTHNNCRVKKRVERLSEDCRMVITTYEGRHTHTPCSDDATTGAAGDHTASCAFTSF

The other results are listed elsewhere or left out.

The assay concerns the target OsWRKY34 (Oryza sativa, UniProt Q0JBA9 1-250). The assay is described as follows: protein-binding microarray (RPBM); PBS, 2% BSA, 51.3 ng/ul salmon testes DNA, 50 uM zinc acetate, 200 nM TF, 25 C, 1 h; high values mean tight binding. As to conditions: protein: recombinant; tags: N-terminal polyhistidine and DsRed monomer fusion (pET32a); label: CyDye5-dUTP incorporated in the synthesized complementary strand; 3' TTTTT single-stranded linker to array surface; dsDNA, one strand shown. In outline: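 Per-feature fluorescence intensity (arbitrary units), read on an Axon 4000B scanner, is the binding signal. Transcription factors carrying an N-terminal polyhistidine tag and DsRed fusion were expressed in E. coli BL21-CodonPlus and purified on Ni–NTA. A custom Agilent array, made double-stranded by primer extension with Cy5-dUTP and blocked with 2% BSA, was incubated with 200 nM protein in PBS, 2% BSA, salmon testes DNA and 50 µM zinc acetate at 25 °C for 1 h and then washed.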
For “GGTGCGTGTTCGGGATGGGGTTCGGGTTCAATTTCAGGTTCGGAGTCACCTAGTGCAG”, the binding signal was 16700 fluorescence intensity (a.u.).
With “GGAATGCGTGCCACACTCTTTGCACATTTTGGTCAGCACACGGAGTCACCTAGTGCAG” the figure was 8030 fluorescence intensity (a.u.); with “GCGGTGTGCATATCAATGGAGGCCAAAGGATTCAGTCGTCCGGAGTCACCTAGTGCAG”, 8510 fluorescence intensity (a.u.); with “GAATATAATGAAATTTCACAGAGGAGGGGCTGGGCTTTATCGGAGTCACCTAGTGCAG”, 10300 fluorescence intensity (a.u.).
Take “TATTTTTTACCATTTCCATTTTTGTTTCGGTCGATTACCACGGAGTCACCTAGTGCAG”: the binding signal was 10300 fluorescence intensity (a.u.).
As to “AGCTTTCCTCGGCTCGTTTCCACCCCTAGCCGTCAGTGTACGGAGTCACCTAGTGCAG”, the binding signal is 10100 fluorescence intensity (a.u.).
To “CTGGCTCACCATTCCCATTGGATTACCAGATATAGCTTCACGGAGTCACCTAGTGCAG” belongs 8680 fluorescence intensity (a.u.).
To “CTGCCGCGTTTTGGAGCCTCATAGGCATGGTTTAATTATTCGGAGTCACCTAGTGCAG” belongs 9420 fluorescence intensity (a.u.); to “CGCAACTCGCGCACAGCCCGCCCGGCCTGTCTAGCGCCTCCGGAGTCACCTAGTGCAG”, 8060 fluorescence intensity (a.u.).
To “CGCCTCCGTCATCGCGTACGCCTCCACCACCGGCGCCCCGCGGAGTCACCTAGTGCAG” belongs 8510 fluorescence intensity (a.u.).
As to “CACCGGCTGTTGACTGCTCTTCTGTCTGTACATTAATGGCCGGAGTCACCTAGTGCAG”, the binding signal was 8720 fluorescence intensity (a.u.).
With “GCATGTGCTTTTGCTGTCTGAATTCAGAATCAGCGTTACCCGGAGTCACCTAGTGCAG” the figure was 8760 fluorescence intensity (a.u.).
To “TAGTTTCCATATCATAATACTCTTTACTTTCTGCTTGCTTCGGAGTCACCTAGTGCAG” belongs 9080 fluorescence intensity (a.u.); to “AATAAGTCTATTTTGCCTCCATCATATATCGAACCGTGTCCGGAGTCACCTAGTGCAG”, 8070 fluorescence intensity (a.u.); to “ACCAGCTGAATATCATATAGTAGTACACACTCATGCATACCGGAGTCACCTAGTGCAG”, 8300 fluorescence intensity (a.u.).
For the sequence “TGACAGCATGAAACTCATCCTCTACTTCCATACCACAAATCGGAGTCACCTAGTGCAG”, the binding signal was 8130 fluorescence intensity (a.u.).
To “CCAAGGGGTGCTAAATGGGGCTAATTTTGTGTGGGGACCACGGAGTCACCTAGTGCAG” belongs 9970 fluorescence intensity (a.u.); to “CTTCCATCTCCTGCCTGCACCCCTATATATTTCAGTTTCACGGAGTCACCTAGTGCAG”, 9100 fluorescence intensity (a.u.).
To “GCACGCTCAATTACCATACACATCAGCTAACAAGTAATAACGGAGTCACCTAGTGCAG” belongs 8470 fluorescence intensity (a.u.); to “GACCATCTGTTTTTGTATCCTTTTTTGTCATTGTAATGACCGGAGTCACCTAGTGCAG”, 13700 fluorescence intensity (a.u.); to “AAAACCTTTTCATCTTTTCTTACTGGTTTATTTTACCAATCGGAGTCACCTAGTGCAG”, 8480 fluorescence intensity (a.u.).
With “AATCCACAATACGCGCGGCGGCTTCTTTCCTCTTTCGCTCCGGAGTCACCTAGTGCAG” the figure was 10300 fluorescence intensity (a.u.); with “CGGAGGTGGTTGACTGGTTCTCTGCCAGTATGCTGATTTTCGGAGTCACCTAGTGCAG”, 8740 fluorescence intensity (a.u.).
For “CCACCTCTCGTCCGCCAAACGCGGCCGCCCTCTCCCCACGCGGAGTCACCTAGTGCAG”, the binding signal is 8740 fluorescence intensity (a.u.).
With “AGGATGTGATTAGTTGGGGATGTTAAGATTAGATTAGATACGGAGTCACCTAGTGCAG” the figure was 10600 fluorescence intensity (a.u.).
To “ACACCCAACCCGATCCACATCATCCCCAAACCTCCCTTCCCGGAGTCACCTAGTGCAG” belongs 8580 fluorescence intensity (a.u.).
“CCATTGGGTCACCCACGCGTAATATTGCCATCCCTACATTCGGAGTCACCTAGTGCAG”: the binding signal is 10800 fluorescence intensity (a.u.).
To “AAAAAAGGCTATCTATTTATTTCTTCCATGCTATTATGACCGGAGTCACCTAGTGCAG” belongs 8420 fluorescence intensity (a.u.); to “GCAGCTCTCTTGTGTACCACCTGGATATTTTTCTGGTGCCCGGAGTCACCTAGTGCAG”, 8550 fluorescence intensity (a.u.).
“ACTACTAATTAAGTTATTATACCCACCTTGCAATTTATTACGGAGTCACCTAGTGCAG”: the binding signal was 8910 fluorescence intensity (a.u.).
“AATTTACAGCTTCATTTTCTGGATTCTCTAATTATATTTTCGGAGTCACCTAGTGCAG”: the binding signal is 8770 fluorescence intensity (a.u.).
To “GATTGCCAGCCAGCCCAACTCCTTCCTACTCCTGGTACTACGGAGTCACCTAGTGCAG” belongs 9630 fluorescence intensity (a.u.); to “CCCTCTTATTCCTACACTGTAGACGGAGGCCTGTTTTGTCCGGAGTCACCTAGTGCAG”, 8920 fluorescence intensity (a.u.).
To “GTTCCCAACATCATCTCCCTCGTTTTTCGCGTACACGCTTCGGAGTCACCTAGTGCAG” belongs 8140 fluorescence intensity (a.u.); to “CAGCGGAGAGCGGCGGCGGCGAGTAGGATGGGGTTTGATTCGGAGTCACCTAGTGCAG”, 8380 fluorescence intensity (a.u.); to “GGATCATCTATTTTTTTTGTTTTGTTACACTTTGGACTATCGGAGTCACCTAGTGCAG”, 9290 fluorescence intensity (a.u.).
To “CTCCGCCTCCGCCTCCGCGTGCTCCCGTAACCGCGCCGCCCGGAGTCACCTAGTGCAG” belongs 8230 fluorescence intensity (a.u.); to “GACGGTTGATTTTTTTGGGTATTTTTGTCCTTCTCTTAATCGGAGTCACCTAGTGCAG”, 9400 fluorescence intensity (a.u.); to “AAATTGTTATTAAACCGGTAGTTTTGTAGTTCTTAAATCTCGGAGTCACCTAGTGCAG”, 10500 fluorescence intensity (a.u.).
In the case of “CCAATCCTACCTTGTCTTTGTTCTTTCTTCCTCCGACGACCGGAGTCACCTAGTGCAG”, the binding signal is 9580 fluorescence intensity (a.u.).
To “CGTCGCCTCGCCTCGTCACGGCCGCCTCCGCCATCGCCTCCGGAGTCACCTAGTGCAG” belongs 9550 fluorescence intensity (a.u.).
With “TTCCAGCTGCTTCAAAACTGACCCATCGTGTAGTATGACTCGGAGTCACCTAGTGCAG” the figure was 8900 fluorescence intensity (a.u.).
